This is an account of results in PMC3305447, “A Peptidoglycan Fragment Triggers β-lactam Resistance in Bacillus licheniformis” (PLoS Pathogens, 2012).

For at least one entry, the source does not settle the construct or the ends of the probe. A weaker result is weaker than the reference pair of the same experiment. Tags and fusion partners may be left off the protein sequences shown.

This data set has as its target T1, BlaI (Bacillus licheniformis) (UniProt P06555).
T1 sequence (looked up): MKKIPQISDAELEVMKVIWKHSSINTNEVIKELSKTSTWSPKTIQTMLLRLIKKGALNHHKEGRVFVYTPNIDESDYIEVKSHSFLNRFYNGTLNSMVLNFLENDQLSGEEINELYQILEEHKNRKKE
As to the kind of experiment: EMSA. The following applies: 0.5 uM Cy5-OP1 + 13.5 uM repressor (ALF sequencer) or 2.5 uM DNA + 50 uM repressor (1% agarose), recombinant protein, residues 1-128, label: 5'-Cy5 on printed strand. (Mobility shift assays separate free from complexed probe on a gel.)

Regarding “GCATTTAAATCTTACATATGTAATACTTTC (double strand) [OP1 operator]”, the binding result runs as follows: (fraction F5 (300-600 Da) of induced extract) “binds more weakly”; (gamma-D-Glu-L-Lys (dipeptide 2)) “binds more weakly”; (gamma-D-Glu-m-A2pm (dipeptide 1)) “binds more weakly”. Also, the binding signal (bound OP/total OP) (induced BS995 cell extract, <=10 kDa ultrafiltrate) turned out to be 0.32.
